The target of assay [1] is Flag-tagged Vpr (HIV-1 viral protein R, from pLAI.2) (HIV-1 (strain LAI)) (UniProt P05928). The assay is described as follows: co-IP; HeLa cells co-transfected with plvx-PCIF and Flag-Vpr for 2 days; lysate in IP lysis buffer, anti-Flag M2 antibody (mouse IgG as control) overnight at 4 °C, protein G magnetic beads; PCIF1 and Vpr detected by western blotting. For orientation: A western blot detects proteins with antibodies after separation by electrophoresis.

Amino acid sequences for entries named in this document (tags omitted).
UniProt P05928: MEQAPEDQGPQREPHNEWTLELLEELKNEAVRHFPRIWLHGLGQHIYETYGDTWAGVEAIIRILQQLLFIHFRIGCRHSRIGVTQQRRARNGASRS
UniProt Q9H4Z3: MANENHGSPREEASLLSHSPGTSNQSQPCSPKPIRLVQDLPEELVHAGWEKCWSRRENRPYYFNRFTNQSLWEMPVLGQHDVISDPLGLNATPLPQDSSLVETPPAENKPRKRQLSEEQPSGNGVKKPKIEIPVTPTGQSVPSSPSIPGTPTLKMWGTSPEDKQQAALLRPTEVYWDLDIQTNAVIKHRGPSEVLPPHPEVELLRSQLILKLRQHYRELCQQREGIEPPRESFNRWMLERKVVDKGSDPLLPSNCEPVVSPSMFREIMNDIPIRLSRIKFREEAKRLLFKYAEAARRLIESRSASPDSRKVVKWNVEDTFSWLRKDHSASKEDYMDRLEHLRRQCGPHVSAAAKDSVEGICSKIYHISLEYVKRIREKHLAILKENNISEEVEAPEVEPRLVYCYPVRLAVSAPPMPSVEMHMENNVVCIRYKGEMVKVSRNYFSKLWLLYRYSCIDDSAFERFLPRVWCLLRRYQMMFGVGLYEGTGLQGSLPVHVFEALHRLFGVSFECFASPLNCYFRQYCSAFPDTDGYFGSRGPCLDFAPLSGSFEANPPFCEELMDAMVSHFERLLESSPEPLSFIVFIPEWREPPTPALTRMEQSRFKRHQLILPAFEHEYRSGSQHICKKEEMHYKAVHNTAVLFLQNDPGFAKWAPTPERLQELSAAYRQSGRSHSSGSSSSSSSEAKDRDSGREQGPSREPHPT

Assay [2] concerns the target Flag-tagged PCIF1 expressed in MT4 cells (UniProt Q9H4Z3). The assay is described as follows: co-IP; MT4 cells expressing Flag-PCIF1 infected with HIVLAI (MOI = 1) for 3 days; Flag immunoprecipitation; Flag-PCIF1 and Vpr detected by western blotting.

Results are given in words; binding and its absence hold for the method and conditions named. Binding seen in cells or lysates may run through a third protein. Some entries that bind do so weakly or less than the wild type.

For “Phosphorylated CTD Interacting Factor 1 (PCIF1), expressed from plvx-PCIF1 (from UniProt Q9H4Z3 1-704) (enzyme)”, in assay [1], the binding entry is “binds”. In the case of “Vpr expressed from HIV-1 LAI during infection of MT4 cells (from UniProt P05928 1-96)”, the binding entry in assay [2] is on record as “binds”.

For the origin of these results see article PMC8452764.
